# ± gives the standard deviation of the averaged measurements. Some of the results follow.
# Amino acid sequences for entries named in this document (tags omitted). A change or cut given only in a name is not applied to a line headed by its entry.
# UniProt P63092, whole entry, looked up: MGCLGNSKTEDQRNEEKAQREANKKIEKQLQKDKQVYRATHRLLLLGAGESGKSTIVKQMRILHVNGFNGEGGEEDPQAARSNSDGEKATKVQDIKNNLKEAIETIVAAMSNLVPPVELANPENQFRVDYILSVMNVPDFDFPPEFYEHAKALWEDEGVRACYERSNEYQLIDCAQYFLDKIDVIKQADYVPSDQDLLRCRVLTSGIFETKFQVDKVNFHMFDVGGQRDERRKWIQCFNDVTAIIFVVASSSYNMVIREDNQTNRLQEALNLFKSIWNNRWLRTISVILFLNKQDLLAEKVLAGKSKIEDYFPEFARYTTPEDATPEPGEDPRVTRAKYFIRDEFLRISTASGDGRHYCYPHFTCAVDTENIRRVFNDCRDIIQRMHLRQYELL
# UniProt P51114, whole entry: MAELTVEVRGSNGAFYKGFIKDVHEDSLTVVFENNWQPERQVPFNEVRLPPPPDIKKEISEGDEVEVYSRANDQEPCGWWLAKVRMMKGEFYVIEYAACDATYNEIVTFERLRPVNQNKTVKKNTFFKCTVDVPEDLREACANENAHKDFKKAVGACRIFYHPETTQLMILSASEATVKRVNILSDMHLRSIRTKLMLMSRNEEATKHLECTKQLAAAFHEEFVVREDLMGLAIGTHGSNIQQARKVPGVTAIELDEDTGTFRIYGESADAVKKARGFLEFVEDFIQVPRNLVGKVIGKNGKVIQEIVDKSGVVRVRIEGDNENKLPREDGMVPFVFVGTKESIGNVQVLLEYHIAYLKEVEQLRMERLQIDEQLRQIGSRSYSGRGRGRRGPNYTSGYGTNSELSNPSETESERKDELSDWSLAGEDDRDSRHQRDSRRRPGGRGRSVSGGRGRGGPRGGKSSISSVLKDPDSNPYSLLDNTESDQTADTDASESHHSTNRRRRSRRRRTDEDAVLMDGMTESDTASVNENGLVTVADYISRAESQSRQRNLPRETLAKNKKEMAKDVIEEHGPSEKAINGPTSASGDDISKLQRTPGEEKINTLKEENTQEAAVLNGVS
# UniProt P61956, whole entry: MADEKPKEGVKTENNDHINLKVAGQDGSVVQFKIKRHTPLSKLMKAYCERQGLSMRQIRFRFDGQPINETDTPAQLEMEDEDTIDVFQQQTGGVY
# UniProt P78332: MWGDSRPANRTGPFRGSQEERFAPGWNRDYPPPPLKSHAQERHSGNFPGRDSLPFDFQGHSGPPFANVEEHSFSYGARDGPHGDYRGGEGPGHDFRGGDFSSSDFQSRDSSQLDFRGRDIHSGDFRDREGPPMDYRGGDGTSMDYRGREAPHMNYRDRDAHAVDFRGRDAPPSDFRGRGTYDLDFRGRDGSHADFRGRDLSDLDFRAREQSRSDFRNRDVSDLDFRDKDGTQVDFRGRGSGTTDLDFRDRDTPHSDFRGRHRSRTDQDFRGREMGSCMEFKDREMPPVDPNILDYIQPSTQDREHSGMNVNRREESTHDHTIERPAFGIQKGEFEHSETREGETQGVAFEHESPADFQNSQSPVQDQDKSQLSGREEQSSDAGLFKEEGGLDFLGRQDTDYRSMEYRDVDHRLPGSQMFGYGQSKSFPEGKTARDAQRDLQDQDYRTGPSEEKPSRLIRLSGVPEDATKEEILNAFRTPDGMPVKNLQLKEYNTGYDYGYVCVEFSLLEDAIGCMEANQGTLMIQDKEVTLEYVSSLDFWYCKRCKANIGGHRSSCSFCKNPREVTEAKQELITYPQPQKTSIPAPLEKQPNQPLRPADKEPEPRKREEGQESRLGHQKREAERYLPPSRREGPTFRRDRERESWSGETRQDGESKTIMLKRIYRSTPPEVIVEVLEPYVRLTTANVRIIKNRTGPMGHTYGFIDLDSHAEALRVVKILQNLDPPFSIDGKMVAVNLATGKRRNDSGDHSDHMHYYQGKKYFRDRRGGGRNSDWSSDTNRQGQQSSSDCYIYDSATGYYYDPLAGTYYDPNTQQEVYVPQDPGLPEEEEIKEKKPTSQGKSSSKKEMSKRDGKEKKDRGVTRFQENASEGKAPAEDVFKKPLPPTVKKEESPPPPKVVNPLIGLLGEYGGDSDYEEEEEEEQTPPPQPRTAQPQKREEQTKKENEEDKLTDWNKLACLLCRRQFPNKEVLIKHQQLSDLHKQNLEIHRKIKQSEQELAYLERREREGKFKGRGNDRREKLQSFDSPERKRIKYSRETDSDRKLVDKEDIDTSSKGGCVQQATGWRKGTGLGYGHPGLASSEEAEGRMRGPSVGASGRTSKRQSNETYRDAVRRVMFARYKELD
# UniProt P62879, whole entry: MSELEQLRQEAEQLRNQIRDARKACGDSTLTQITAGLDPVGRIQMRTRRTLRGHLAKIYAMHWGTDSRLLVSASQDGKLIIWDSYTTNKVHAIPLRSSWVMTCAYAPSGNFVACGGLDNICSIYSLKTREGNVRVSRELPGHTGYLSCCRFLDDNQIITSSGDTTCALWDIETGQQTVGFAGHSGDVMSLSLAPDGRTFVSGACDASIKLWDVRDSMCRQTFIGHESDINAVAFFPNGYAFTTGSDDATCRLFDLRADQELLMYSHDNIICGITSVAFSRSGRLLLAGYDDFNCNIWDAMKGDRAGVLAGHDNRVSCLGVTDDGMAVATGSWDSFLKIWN
# Compound: Nc1nc2c(ncn2[C@@H]2O[C@H](COP(=O)(O)OP(=O)(O)OP(=O)(O)O)[C@@H](O)[C@H]2O)c(=O)[nH]1 [guanosine triphosphate]
# Assay: NP40-soluble protein abundance relative to vehicle (solubility fold change) (ratio); higher = more soluble protein in presence of GTP
# Protocol: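 Solubility proteome profiling in Jurkat crude lysate. Lysate was treated with Mg-GTP (0.1-10 mM) for 10 min at room temperature and 3 min at 37 °C, then solubilised with 0.8% NP40 and benzonase, followed by ultracentrifugation. Proteins were quantified by TMT10 LC-MS/MS; the value is the NP40-soluble abundance relative to the NP40-processed vehicle, from 3 independent experiments.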
Target,NP40-soluble protein abundance (concentration: 0.1mM),NP40-soluble protein abundance (concentration: 0.5mM),NP40-soluble protein abundance (concentration: 1mM),NP40-soluble protein abundance (concentration: 2mM),NP40-soluble protein abundance (concentration: 4mM),NP40-soluble protein abundance (concentration: 6mM),NP40-soluble protein abundance (concentration: 8mM),NP40-soluble protein abundance (concentration: 10mM)
UniProt P63092-2|P63092-3|P63092 and related entries,0.973 ± 0.013,0.9607 ± 0.0034,0.922 ± 0.025,0.91 ± 0.024,0.882 ± 0.043,0.882 ± 0.038,0.873 ± 0.026,0.847 ± 0.031
FXR1 (UniProt P51114),1.13 ± 0.11,1.23 ± 0.075,1.31 ± 0.042,1.54 ± 0.07,1.885 ± 0.0094,2.02 ± 0.03,2.16 ± 0.091,2.28 ± 0.13
UniProt P61956 and related entries,0.914 ± 0.077,0.853 ± 0.055,1.11 ± 0.12,0.994 ± 0.078,1.03 ± 0.036,1.02 ± 0.084,1.04 ± 0.13,1.01 ± 0.049
RBM6 (UniProt P78332),1.02 ± 0.025,1.01 ± 0.034,1.05 ± 0.055,1.06 ± 0.058,1.13 ± 0.032,1.14 ± 0.049,1.21 ± 0.077,1.23 ± 0.07
UniProt P62879,0.978 ± 0.035,1.01 ± 0.064,0.917 ± 0.031,0.947 ± 0.074,0.924 ± 0.05,0.937 ± 0.054,0.913 ± 0.048,0.893 ± 0.09
